Laboratory results published in patent US20090298894A1, “AMINO ACID COMPOUNDS” (Asahi Kasei Pharma Corporation, priority 2008, published 2009).
Structures can show the parent of a compound that is named as a salt. Some of these results come from one statement about several compounds together. At least one compound was matched to its structure with a doubt left.

Sequences of proteins named here, by UniProt entry; tags and fusion partners are left off. A change or cut given only in a name is not applied to a line headed by its entry.
UniProt Q99500: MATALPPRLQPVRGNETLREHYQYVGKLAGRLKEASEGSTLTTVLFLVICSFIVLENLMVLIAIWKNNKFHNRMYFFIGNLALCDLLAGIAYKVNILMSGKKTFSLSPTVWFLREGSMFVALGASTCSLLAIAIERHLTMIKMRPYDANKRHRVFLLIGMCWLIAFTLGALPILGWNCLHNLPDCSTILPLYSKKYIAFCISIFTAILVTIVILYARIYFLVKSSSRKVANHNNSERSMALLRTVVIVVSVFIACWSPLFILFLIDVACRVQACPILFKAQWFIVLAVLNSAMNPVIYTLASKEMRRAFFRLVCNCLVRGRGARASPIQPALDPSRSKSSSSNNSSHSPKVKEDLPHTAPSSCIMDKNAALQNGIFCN
UniProt P21453, whole entry: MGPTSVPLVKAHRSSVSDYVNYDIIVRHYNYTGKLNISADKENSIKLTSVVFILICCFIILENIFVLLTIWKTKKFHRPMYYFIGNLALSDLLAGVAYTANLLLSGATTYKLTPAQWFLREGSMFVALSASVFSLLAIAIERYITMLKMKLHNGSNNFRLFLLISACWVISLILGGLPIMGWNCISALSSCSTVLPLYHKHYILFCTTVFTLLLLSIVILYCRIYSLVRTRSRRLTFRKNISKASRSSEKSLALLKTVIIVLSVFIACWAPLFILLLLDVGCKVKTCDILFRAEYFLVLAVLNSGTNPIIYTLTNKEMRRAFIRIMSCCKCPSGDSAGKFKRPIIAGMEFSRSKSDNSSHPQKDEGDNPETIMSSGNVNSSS

Target: T1, human S1P3 (Homo sapiens, UniProt Q99500)
T1 construct: expressed in transfected cells
Assay: 35S-GTPγS binding assay using a membrane prepared from CHO cells which stably express human S1P3
Format: biochemical
Conditions: CHO cell membrane stably expressing human S1P3, read-out: EC50 (concentration of agonist required to give 50% of its own maximum increase ratio), human S1P3

Compound	EC50 [nM]
Cc1cc(-c2nc(-c3ccc4c(c3)CN([C@H]3C[C@H](C(=O)O)C3)C4)no2)ccc1-c1cc(F)ccc1F [Example 91]	≥ 1000
Cc1cc(-c2nc(-c3ccc4c(c3)CN([C@H]3C[C@H](C(=O)O)C3)C4)no2)ccc1-c1ccccc1C(F)(F)F [Example 85]	≥ 1000
Cc1cc(-c2nc(-c3ccc4c(c3)CN([C@H]3C[C@H](C(=O)O)C3)C4)no2)ccc1-c1cccc(F)c1C(F)(F)F [Example 95]	≥ 1000
Cc1cc(-c2nc(-c3ccc4c(c3)CN([C@H]3C[C@H](C(=O)O)C3)C4)no2)ccc1-c1cccc(Cl)c1C(F)(F)F [Example 101]	≥ 1000
Cc1cc(-c2nc(-c3ccc4c(c3)CN([C@H]3C[C@H](C(=O)O)C3)C4)no2)c(F)cc1-c1cc(F)cc(F)c1F [Example 102]	≥ 1000
Cc1cc(-c2nc(-c3ccc4c(c3)CN([C@H]3C[C@H](C(=O)O)C3)C4)no2)ccc1-c1ccoc1 [Example 81]	≥ 1000
O=C(O)[C@H]1C[C@H](NC2CCc3cc(-c4noc(-c5ccc(-c6ccccc6)c(F)c5)n4)ccc32)C1 (stereo partly shown) [Example 60]	≥ 1000
Cc1cc(-c2nc(-c3ccc4c(c3)CN([C@H]3C[C@H](C(=O)O)C3)C4)no2)c(F)cc1-c1cccc(F)c1F [Example 93]	≥ 1000
Cc1cc(-c2nc(-c3ccc4c(c3)CN([C@H]3C[C@H](C(=O)O)C3)C4)no2)c(F)cc1-c1ccccc1C(F)(F)F [Example 9]	≥ 1000
Cc1cc(-c2nc(-c3ccc4c(c3)CCC4N[C@H]3C[C@H](C(=O)O)C3)no2)cc(C)c1-c1ccsc1 (stereo partly shown) [Example 16]	≥ 1000
O=C(O)[C@H]1C[C@H](N2Cc3ccc(-c4noc(-c5ccc(-c6ccccc6)c(Cl)c5)n4)cc3C2)C1 [Example 67]	≥ 1000
Cc1cc(-c2nc(-c3ccc4c(c3)CN([C@H]3C[C@H](C(=O)O)C3)C4)no2)ccc1-c1ccccc1 [Example 8, 1,3-Trans-3-(5-(5-(2-methylbiphenyl-4-yl)-1,2,4-oxadiazol-3-yl)isoindolin-2-yl)cyclobutanecarboxylic acid hydrochloride salt]	≥ 1000
Cc1cc(-c2nc(-c3ccc4c(c3)CN([C@H]3C[C@H](C(=O)O)C3)C4)no2)c(F)cc1-c1ccsc1 [Example 80]	≥ 1000
Cc1cc(-c2nc(-c3ccc4c(c3)CCC4N[C@H]3C[C@H](C(=O)O)C3)no2)c(F)cc1-c1ccccc1 (stereo partly shown) [Example 12]	≥ 1000
Cc1cc(-c2nc(-c3ccc4c(c3)CCC4N[C@H]3C[C@H](C(=O)O)C3)no2)cc(C)c1-c1ccccc1 (stereo partly shown) [Example 2]	≥ 1000
Cc1cc(-c2nc(-c3ccc4c(c3)CCC4N[C@H]3C[C@H](C(=O)O)C3)no2)cc(C)c1-c1cccc(F)c1 (stereo partly shown) [Example 18]	≥ 1000
Cc1cc(-c2nc(-c3ccc4c(c3)CN([C@H]3C[C@H](C(=O)O)C3)C4)no2)ccc1-c1ccsc1 [Example 78]	≥ 1000
Cc1cc(-c2nc(-c3ccc4c(c3)CN([C@H]3C[C@H](C(=O)O)C3)C4)no2)ccc1-c1ccccc1F [Example 84]	≥ 1000
Cc1cc(-c2nc(-c3ccc4c(c3)CCCC4NC3CC(C(=O)O)C3)no2)ccc1-c1ccsc1 (stereo not drawn) [Example 7, 1,3-Trans-3-(6-(5-(3-methyl-4-(thiophen-3-yl)phenyl)-1,2,4-oxadiazol-3-yl)-1,2,3,4-tetrahydronaphthalen-1-ylamino)cyclobutanecarboxylic acid hydrochloride salt]	≥ 1000
COc1cc(-c2nc(-c3ccc4c(c3)CN([C@H]3C[C@H](C(=O)O)C3)C4)no2)c(F)cc1-c1cccc(F)c1 [Example 99]	≥ 1000
CSc1ccccc1-c1ccc(-c2nc(-c3ccc4c(c3)CN([C@H]3C[C@H](C(=O)O)C3)C4)no2)cc1C [Example 10]	≥ 1000
Cc1cc(-c2nc(-c3ccc4c(c3)CN([C@H]3C[C@@H](C(=O)O)C3)C4)no2)c(F)cc1-c1cc(F)cc(F)c1F [Example 106]	≥ 1000
Cc1cc(-c2nc(-c3ccc4c(c3)CN([C@H]3C[C@H](C(=O)O)C3)C4)no2)ccc1-c1cccc(Br)c1C(F)(F)F [Example 103]	≥ 1000
N#Cc1ccccc1-c1ccc(-c2nc(-c3ccc4c(c3)CCC4N[C@H]3C[C@H](C(=O)O)C3)no2)cc1Cl (stereo partly shown) [Example 63]	≥ 1000
Cc1cc(-c2nc(-c3ccc4c(c3)CCC4N[C@H]3C[C@H](C(=O)O)C3)no2)c(F)cc1-c1cccc(F)c1C(F)(F)F (stereo partly shown) [Example 40]	≥ 1000
Cc1cc(-c2nc(-c3cc(C)c4c(c3)CN([C@H]3C[C@H](C(=O)O)C3)C4)no2)ccc1-c1ccccc1 [Example 53, 1,3-Trans-3-(4-methyl-6-(5-(2-methylbiphenyl-4-yl)-1,2,4-oxadiazol-3-yl)isoindolin-2-yl)cyclobutane carboxylic acid hydrochloric acid salt]	≥ 1000
Cc1cc(-c2nc(-c3ccc4c(c3)CN([C@H]3C[C@H](C(=O)O)C3)C4)no2)ccc1-c1cccc(C(F)(F)F)c1 [Example 94]	≥ 1000
Cc1cc(-c2nc(-c3ccc4c(c3)CN([C@H]3C[C@H](C(=O)O)C3)C4)no2)ccc1-c1cccc(F)c1F [Example 90]	≥ 1000

Results, then the molecule that gave them:

EC50 [nM]	Compound
≥ 1000	CSc1ccccc1-c1ccc(-c2nc(-c3ccc4c(c3)CCC4N[C@H]3C[C@H](C(=O)O)C3)no2)cc1C (stereo partly drawn) [Example 11, Optically active 1,3-trans-3-(5-(5-(2-methyl-2′-methylthiobiphenyl-4-yl)-1,2,4-oxadiazol-3-yl)-2,3-dihydro-1H-inden-1-ylamino)cyclobutane carboxylic acid]
≥ 1000	Cc1cc(-c2nc(-c3ccc4c(c3)CCC4N[C@H]3C[C@H](C(=O)O)C3)no2)c(F)cc1-c1cccc(F)c1F (stereo partly shown) [Example 32]
≥ 1000	Cc1cc(-c2nc(-c3ccc4c(c3)CCC4N[C@H]3C[C@H](C(=O)O)C3)no2)ccc1-c1cc(C(F)(F)F)ccc1F (stereo partly shown) [Example 36]
≥ 1000	Cc1cc(-c2nc(-c3ccc4c(c3)CCC4N[C@H]3C[C@H](C(=O)O)C3)no2)ccc1-c1cccc(F)c1C#N (stereo partly shown) [Example 64]
≥ 1000	Cc1cc(-c2nc(-c3ccc4c(c3)CCC4N[C@H]3C[C@H](C(=O)O)C3)no2)ccc1-c1ccccc1Cl (stereo partly shown) [Example 58]
≥ 1000	Cc1cc(-c2nc(-c3ccc4c(c3)CCC4N[C@H]3C[C@H](C(=O)O)C3)no2)ccc1-c1ccccc1C(F)(F)F (stereo partly shown) [Example 21]
≥ 1000	Cc1cc(-c2nc(-c3ccc4c(c3)CCC4N[C@H]3C[C@H](C(=O)O)C3)no2)ccc1-c1cscc1C (stereo partly shown) [Example 25]
≥ 1000	Cc1cc(-c2nc(-c3ccc4c(c3)CCC4N[C@H]3C[C@H](C(=O)O)C3)no2)ccc1-c1cccc(F)c1 (stereo partly shown) [Example 4]
≥ 1000	Cc1cc(-c2nc(-c3ccc4c(c3)CCC4N[C@H]3C[C@H](C(=O)O)C3)no2)ccc1-c1cccc(F)c1F (stereo partly shown) [Example 28]
≥ 1000	Cc1cc(-c2nc(-c3ccc4c(c3)CCC4N[C@H]3C[C@H](C(=O)O)C3)no2)ccc1-c1cc(F)cc(F)c1F (stereo partly shown) [Example 46]
≥ 1000	Cc1cc(-c2nc(-c3ccc4c(c3)CCC4N[C@H]3C[C@H](C(=O)O)C3)no2)ccc1-c1cccc(Br)c1C(F)(F)F (stereo partly shown) [Example 51]
≥ 1000	Cc1cc(-c2nc(-c3ccc4c(c3)CCC4N[C@H]3C[C@H](C(=O)O)C3)no2)ccc1-c1ccsc1 (stereo partly shown) [Example 3]
≥ 1000	Cc1cc(-c2nc(-c3ccc4c(c3)CCC4N[C@H]3C[C@H](C(=O)O)C3)no2)ccc1-c1ccccc1OC(F)(F)F (stereo partly shown) [Example 17]
≥ 1000	Cc1cc(-c2nc(-c3ccc4c(c3)CCC4NC3CC(C(=O)O)C3)no2)ccc1-c1cccc([N+](=O)[O-])c1C(F)(F)F (stereo not shown) [Example 49]
≥ 1000	Cc1cc(-c2nc(-c3ccc4c(c3)CCC4N[C@H]3C[C@H](C(=O)O)C3)no2)ccc1-c1ccccc1C#N (stereo partly shown) [Example 59]
≥ 1000	Cc1cc(-c2nc(-c3ccc4c(c3)CCC4N[C@H]3C[C@H](C(=O)O)C3)no2)ccc1-c1cc(F)ccc1F (stereo partly shown) [Example 29]
≥ 1000	Cc1cc(-c2nc(-c3ccc4c(c3)CCC4N[C@H]3C[C@H](C(=O)O)C3)no2)c(F)cc1-c1cccc(F)c1 (stereo partly shown) [Example 23]
≥ 1000	Cc1cc(-c2nc(-c3ccc4c(c3)CCC4N[C@H]3C[C@H](C(=O)O)C3)no2)ccc1-c1c(F)ccc(F)c1F (stereo partly shown) [Example 45]
≥ 1000	COc1cccc(-c2ccc(-c3nc(-c4ccc5c(c4)CCC5N[C@H]4C[C@H](C(=O)O)C4)no3)cc2C)c1F (stereo partly shown) [Example 38]

Target: T2, human S1P1 (Homo sapiens, UniProt P21453)
T2 construct: expressed in transfected cells
Assay: 35S-GTPγS binding assay using a membrane prepared from CHO cells which stably express S1P1 receptor
Format: biochemical
Conditions: CHO cell membrane fraction stably expressing human S1P1, read-out: EC50 (concentration of agonist required to give 50% of its own maximum increase ratio), human S1P1
Method: ^35S-GTPγS Binding Assay Using a Membrane Prepared from CHO Cells Which Stably Express S1P1 Receptor
Functional activation of human S1P1 by the compounds was determined based on quantification of ^35S-GTPγS binding to G protein due to the receptor activation, by using a cell membrane fraction prepared from CHO cells in which human S1P1 are stably expressed. As for human S1P1, the above described human S1P1 was used. Membrane proteins as prepared and various concentrations of sphingosine-1-phosphate or the compounds diluted in a solvent such as DMSO were incubated in a solution comprising 20 mM Tris-Cl (pH 7.5), 100 mM NaCl, 10 mM MgCl2, […] (Upstate), 0.1% BSA (fatty acid free, Sigma) and 25 pM ^35S-GTPγS (specific activity 1250 Ci/mmol) in 96 well microtiter plates. […] After drying the harvest plates at least for 12 hours, 25 μl of MicroScint-O (Perkin Elmer) was added to each well and radioactivity was measured using a Top Counter.
Having the value measured for the well to which a solvent has been added as a control value, the agonist activity of the compounds was determined by comparing the increase in the well to which a test compound has been added to the control value, and therefore an increase ratio for each concentration of the compounds was obtained. […]

Compound	EC50 [nM]
CSc1ccccc1-c1ccc(-c2nc(-c3ccc4c(c3)CCC4N[C@H]3C[C@H](C(=O)O)C3)no2)cc1C (stereo partly drawn) [Example 11, Optically active 1,3-trans-3-(5-(5-(2-methyl-2′-methylthiobiphenyl-4-yl)-1,2,4-oxadiazol-3-yl)-2,3-dihydro-1H-inden-1-ylamino)cyclobutane carboxylic acid]	< 10
Cc1cc(-c2nc(-c3ccc4c(c3)CN([C@H]3C[C@H](C(=O)O)C3)C4)no2)ccc1-c1ccccc1 [Example 8, 1,3-Trans-3-(5-(5-(2-methylbiphenyl-4-yl)-1,2,4-oxadiazol-3-yl)isoindolin-2-yl)cyclobutanecarboxylic acid hydrochloride salt]	< 10
